Assay results as given in the supplement of paper PMC10849652.
The list shows a part of the results.

Protein sequences, listed by entry. Tags and fused reporters are not part of them. Lines headed by an entry give the natural chain unless they say otherwise; changes in a name come on top.
UniProt P31327: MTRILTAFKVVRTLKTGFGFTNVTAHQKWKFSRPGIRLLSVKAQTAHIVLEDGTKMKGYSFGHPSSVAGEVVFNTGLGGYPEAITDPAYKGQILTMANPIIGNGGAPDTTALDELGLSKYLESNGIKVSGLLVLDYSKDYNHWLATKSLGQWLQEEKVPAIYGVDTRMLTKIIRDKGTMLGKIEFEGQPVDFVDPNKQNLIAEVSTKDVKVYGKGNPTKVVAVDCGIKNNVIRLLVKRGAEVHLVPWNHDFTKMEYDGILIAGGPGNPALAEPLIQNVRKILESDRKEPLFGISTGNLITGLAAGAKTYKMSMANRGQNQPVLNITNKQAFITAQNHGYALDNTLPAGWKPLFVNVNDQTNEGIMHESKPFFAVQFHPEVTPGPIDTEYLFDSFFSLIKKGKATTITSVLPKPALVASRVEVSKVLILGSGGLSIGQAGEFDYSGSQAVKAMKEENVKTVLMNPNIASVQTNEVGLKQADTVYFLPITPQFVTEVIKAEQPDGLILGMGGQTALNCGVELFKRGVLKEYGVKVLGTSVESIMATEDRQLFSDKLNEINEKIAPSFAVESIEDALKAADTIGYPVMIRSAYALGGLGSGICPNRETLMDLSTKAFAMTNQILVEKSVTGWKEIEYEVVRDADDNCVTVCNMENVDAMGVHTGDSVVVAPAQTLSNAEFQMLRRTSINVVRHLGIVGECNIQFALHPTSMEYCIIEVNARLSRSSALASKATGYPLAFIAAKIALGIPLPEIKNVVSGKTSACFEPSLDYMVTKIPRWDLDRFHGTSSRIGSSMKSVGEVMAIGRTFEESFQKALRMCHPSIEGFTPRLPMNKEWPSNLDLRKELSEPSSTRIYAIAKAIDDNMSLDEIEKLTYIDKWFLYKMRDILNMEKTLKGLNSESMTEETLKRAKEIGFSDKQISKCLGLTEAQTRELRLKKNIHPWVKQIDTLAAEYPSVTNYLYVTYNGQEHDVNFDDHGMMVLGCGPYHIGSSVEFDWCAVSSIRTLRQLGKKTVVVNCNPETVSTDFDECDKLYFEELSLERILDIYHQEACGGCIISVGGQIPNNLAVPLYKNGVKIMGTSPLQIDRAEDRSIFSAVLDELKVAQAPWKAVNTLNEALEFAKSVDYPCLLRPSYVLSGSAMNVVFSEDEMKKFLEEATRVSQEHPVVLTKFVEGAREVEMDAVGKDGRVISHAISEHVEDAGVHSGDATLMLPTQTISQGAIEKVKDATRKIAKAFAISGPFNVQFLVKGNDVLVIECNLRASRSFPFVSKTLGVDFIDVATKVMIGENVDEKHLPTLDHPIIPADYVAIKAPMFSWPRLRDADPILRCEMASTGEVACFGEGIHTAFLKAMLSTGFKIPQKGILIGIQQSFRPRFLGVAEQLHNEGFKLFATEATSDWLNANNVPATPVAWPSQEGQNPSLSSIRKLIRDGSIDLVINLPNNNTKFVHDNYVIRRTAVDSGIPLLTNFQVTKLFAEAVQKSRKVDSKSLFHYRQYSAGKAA
UniProt Q5RI15: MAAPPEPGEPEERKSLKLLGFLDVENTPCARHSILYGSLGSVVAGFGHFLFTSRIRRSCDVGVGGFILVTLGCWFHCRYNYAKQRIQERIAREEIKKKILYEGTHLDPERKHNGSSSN
UniProt Q14019: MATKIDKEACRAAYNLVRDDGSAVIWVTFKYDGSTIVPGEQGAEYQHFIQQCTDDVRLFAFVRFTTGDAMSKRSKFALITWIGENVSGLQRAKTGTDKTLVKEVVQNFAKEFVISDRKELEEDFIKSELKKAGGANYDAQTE
UniProt Q8N8Q8: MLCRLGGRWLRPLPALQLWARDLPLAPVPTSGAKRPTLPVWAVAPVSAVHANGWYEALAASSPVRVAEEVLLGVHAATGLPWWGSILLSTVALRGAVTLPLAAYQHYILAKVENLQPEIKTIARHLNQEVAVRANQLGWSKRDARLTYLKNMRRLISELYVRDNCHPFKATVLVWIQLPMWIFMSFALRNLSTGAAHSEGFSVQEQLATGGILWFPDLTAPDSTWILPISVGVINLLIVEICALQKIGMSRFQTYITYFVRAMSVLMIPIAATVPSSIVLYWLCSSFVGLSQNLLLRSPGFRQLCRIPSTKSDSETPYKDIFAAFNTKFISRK
UniProt Q9P000, whole entry, looked up: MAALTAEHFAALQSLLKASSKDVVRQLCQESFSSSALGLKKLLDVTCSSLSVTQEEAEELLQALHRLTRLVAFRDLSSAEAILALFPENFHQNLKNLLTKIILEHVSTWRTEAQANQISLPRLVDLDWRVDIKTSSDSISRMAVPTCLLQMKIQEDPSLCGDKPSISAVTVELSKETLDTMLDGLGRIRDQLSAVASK
UniProt O75629: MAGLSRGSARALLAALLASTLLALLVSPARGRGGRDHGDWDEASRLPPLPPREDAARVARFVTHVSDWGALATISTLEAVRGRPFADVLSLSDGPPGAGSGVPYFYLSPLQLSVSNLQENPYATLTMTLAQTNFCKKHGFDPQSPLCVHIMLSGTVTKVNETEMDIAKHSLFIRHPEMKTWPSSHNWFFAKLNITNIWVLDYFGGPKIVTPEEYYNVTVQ
UniProt Q9Y2Z9: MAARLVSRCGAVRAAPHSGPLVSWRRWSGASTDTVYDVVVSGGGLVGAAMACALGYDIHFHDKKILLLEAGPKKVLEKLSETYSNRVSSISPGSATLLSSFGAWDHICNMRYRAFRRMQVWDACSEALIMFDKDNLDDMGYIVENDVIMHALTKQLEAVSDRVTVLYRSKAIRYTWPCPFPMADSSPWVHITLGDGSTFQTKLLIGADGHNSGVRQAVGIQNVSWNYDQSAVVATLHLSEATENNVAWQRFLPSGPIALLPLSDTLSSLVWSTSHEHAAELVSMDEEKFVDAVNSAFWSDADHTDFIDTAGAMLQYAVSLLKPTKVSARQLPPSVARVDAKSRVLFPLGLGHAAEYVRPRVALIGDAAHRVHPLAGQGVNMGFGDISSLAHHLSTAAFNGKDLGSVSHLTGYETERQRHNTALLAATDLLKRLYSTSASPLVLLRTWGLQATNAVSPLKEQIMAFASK
UniProt Q5HYK3: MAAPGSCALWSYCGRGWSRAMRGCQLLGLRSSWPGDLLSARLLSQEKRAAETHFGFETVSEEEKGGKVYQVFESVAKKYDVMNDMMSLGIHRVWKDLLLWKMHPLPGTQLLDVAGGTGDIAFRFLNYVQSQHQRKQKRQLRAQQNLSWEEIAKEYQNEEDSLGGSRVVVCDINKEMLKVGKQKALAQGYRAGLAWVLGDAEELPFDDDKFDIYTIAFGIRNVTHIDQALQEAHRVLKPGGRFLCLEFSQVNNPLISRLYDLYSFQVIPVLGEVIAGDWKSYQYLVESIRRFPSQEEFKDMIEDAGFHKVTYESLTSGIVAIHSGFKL
UniProt P10606, whole entry, looked up: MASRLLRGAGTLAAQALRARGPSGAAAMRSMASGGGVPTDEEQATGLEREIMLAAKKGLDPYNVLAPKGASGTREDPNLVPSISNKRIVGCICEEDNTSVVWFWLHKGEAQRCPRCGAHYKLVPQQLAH
UniProt Q9NQ92: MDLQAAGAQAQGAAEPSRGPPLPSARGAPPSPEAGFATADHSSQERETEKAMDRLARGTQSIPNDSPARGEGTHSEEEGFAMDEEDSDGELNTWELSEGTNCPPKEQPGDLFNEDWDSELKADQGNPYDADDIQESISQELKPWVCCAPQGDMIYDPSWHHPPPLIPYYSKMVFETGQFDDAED
UniProt Q99627: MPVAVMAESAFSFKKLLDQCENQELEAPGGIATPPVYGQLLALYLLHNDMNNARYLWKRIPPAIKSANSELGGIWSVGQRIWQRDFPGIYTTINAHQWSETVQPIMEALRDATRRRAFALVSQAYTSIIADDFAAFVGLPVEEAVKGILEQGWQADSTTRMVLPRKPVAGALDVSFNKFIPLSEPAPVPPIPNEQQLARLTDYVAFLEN
UniProt Q96HD1: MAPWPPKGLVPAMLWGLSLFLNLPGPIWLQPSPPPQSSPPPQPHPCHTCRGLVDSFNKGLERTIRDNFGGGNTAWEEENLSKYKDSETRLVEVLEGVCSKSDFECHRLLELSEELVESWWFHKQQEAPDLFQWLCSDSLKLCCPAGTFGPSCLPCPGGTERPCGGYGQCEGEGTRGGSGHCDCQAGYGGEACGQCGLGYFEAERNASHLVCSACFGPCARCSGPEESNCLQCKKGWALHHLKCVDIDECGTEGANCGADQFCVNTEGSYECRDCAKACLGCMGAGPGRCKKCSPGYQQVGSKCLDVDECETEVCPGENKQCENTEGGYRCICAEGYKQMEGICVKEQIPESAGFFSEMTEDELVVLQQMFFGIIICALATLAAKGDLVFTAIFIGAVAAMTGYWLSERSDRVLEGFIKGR
UniProt P20674, whole entry, looked up: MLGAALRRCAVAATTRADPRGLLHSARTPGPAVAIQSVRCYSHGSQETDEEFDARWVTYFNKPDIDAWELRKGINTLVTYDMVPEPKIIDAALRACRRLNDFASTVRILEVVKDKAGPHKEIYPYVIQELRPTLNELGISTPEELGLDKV
UniProt Q6QEF8, whole entry, looked up: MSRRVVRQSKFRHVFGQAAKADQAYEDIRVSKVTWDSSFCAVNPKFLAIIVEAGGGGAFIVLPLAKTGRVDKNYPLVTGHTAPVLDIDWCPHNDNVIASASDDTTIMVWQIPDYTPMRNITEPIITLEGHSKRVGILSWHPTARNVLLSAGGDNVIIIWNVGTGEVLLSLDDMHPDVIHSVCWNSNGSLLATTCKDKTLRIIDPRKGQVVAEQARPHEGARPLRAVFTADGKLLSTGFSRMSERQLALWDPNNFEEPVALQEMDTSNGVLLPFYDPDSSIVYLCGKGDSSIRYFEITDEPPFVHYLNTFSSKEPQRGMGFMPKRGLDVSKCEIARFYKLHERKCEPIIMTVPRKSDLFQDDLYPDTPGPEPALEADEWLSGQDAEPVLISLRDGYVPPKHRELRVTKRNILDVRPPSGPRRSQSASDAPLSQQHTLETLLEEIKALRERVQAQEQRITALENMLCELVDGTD
UniProt Q9UJA2: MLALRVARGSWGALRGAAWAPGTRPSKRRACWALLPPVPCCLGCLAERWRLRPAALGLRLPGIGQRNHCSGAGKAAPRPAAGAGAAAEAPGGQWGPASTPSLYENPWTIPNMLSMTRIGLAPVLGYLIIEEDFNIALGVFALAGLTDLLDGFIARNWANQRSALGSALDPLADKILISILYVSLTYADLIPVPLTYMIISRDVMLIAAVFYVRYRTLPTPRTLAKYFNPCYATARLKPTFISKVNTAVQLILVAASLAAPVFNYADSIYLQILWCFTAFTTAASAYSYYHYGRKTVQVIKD
UniProt P48729: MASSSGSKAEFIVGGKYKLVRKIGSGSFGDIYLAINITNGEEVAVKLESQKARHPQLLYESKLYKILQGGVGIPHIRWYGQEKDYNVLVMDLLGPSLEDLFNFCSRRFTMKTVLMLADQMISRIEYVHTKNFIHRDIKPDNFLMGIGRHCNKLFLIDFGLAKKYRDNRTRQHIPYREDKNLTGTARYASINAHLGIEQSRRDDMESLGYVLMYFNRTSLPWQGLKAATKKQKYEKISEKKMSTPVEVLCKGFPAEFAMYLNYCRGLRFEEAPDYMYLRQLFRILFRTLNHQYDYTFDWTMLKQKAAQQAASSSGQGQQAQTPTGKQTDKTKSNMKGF
UniProt P14406, whole entry, looked up: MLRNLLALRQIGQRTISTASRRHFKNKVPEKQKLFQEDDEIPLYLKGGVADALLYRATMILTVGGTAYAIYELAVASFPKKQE
UniProt Q9ULV4, whole entry, looked up: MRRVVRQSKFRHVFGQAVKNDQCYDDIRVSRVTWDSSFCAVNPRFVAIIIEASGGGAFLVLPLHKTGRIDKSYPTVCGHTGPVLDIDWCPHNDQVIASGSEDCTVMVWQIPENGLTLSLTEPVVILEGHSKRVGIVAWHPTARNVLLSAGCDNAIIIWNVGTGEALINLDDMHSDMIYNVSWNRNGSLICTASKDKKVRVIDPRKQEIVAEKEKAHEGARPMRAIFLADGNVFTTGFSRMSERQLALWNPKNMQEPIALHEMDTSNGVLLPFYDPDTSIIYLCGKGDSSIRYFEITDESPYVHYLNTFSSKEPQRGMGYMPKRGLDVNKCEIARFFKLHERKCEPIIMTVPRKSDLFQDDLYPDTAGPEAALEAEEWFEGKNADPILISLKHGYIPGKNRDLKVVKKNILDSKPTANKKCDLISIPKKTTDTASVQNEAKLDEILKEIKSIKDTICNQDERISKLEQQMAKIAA
UniProt Q8N752: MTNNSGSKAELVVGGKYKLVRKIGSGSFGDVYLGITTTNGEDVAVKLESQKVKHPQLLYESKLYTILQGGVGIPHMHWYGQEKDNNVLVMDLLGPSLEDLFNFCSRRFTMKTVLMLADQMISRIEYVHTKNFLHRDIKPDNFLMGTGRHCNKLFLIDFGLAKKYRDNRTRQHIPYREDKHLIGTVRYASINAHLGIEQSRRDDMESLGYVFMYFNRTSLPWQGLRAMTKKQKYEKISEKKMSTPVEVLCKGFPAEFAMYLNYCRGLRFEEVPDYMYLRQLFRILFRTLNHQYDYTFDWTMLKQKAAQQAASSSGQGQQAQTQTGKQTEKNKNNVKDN
UniProt O75575: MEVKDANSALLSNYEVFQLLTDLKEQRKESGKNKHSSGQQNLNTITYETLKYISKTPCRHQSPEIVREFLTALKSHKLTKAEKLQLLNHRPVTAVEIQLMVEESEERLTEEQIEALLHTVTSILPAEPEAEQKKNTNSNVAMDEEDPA

Legend:
Test in all cases: log2 fold change, soluble protein after heating vs DMSO (PISA); higher = thermal stabilisation; K562 cells, 10 uM, 30 min; active = over 0.2 and 3.5 SD of the protein, either way, in both replicates (recomputed)
[1] = compound: COC1=CC=C(C=C1)CN2C=CC3=C2C=C(C=C3)C(=O)NO
Outline: (§1)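 K562 cells at 2×10^6 cells/mL were treated with 10 μM compound for 30 min. Aliquots were heated for 3 min across 48°C-58°C, pooled, and extracted in PBS with 0.5% NP-40 at 4°C; soluble protein was the supernatant after 21,000xg for 90 min. Soluble protein was quantified by TMTpro 16plex LC-MS/MS with channel sums equalised, and reported as log2 fold change in thermal stability against DMSO controls, with values from duplicates.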

filanesib = compound: CON(C)C(=O)N1N=C(c2cc(F)ccc2F)S[C@@]1(CCCN)c1ccccc1 [filanesib]
Outline: as §1

zotarolimus = compound: CO[C@H]1C[C@@H]2CC[C@@H](C)[C@@](O)(O2)C(=O)C(=O)N2CCCC[C@H]2C(=O)O[C@H]([C@H](C)C[C@@H]2CC[C@H](n3cnnn3)[C@H](OC)C2)CC(=O)[C@H](C)/C=C(\C)[C@@H](O)[C@@H](OC)C(=O)[C@H](C)C[C@H](C)/C=C/C=C/C=C/1C [zotarolimus]
Outline: as §1

idasanutlin = compound: COc1cc(C(=O)O)ccc1NC(=O)[C@@H]1N[C@@H](CC(C)(C)C)[C@](C#N)(c2ccc(Cl)cc2F)[C@H]1c1cccc(Cl)c1F [idasanutlin]
Outline: as §1

alisertib = compound: COc1cc(Nc2ncc3c(n2)-c2ccc(Cl)cc2C(c2c(F)cccc2OC)=NC3)ccc1C(=O)O [alisertib]
Outline: as §1

[2] = compound: COc1cc2nc(-c3cc(F)ccc3O)nc(N[C@@H]3CNC[C@H]3C(C)(C)O)c2cc1OC
Outline: as §1

gefitinib = compound: COc1cc2ncnc(Nc3ccc(F)c(Cl)c3)c2cc1OCCCN1CCOCC1 [gefitinib]
Outline: as §1

[3] = compound: COc1cccc2cc(-c3nc([C@H]4CC[C@H](C(=O)O)CC4)n4ncnc(N)c34)[nH]c12
Outline: as §1

lapatinib = compound: CS(=O)(=O)CCNCc1ccc(-c2ccc3ncnc(Nc4ccc(OCc5cccc(F)c5)c(Cl)c4)c3c2)o1 [lapatinib]
Outline: as §1

pictilisib = compound: CS(=O)(=O)N1CCN(Cc2cc3nc(-c4cccc5[nH]ncc45)nc(N4CCOCC4)c3s2)CC1 [pictilisib]
Outline: as §1

Target | log2 fold change [1] | log2 fold change (filanesib) | log2 fold change (zotarolimus) | log2 fold change (idasanutlin) | log2 fold change (alisertib) | log2 fold change [2] | log2 fold change (gefitinib) | log2 fold change [3] | log2 fold change (lapatinib) | log2 fold change (pictilisib)
CPS1 isoform 3 (UniProt P31327) | inactive: 0.041 | inactive: -0.055 | inactive: 0.022 | inactive: -0.125 | inactive: -0.005 | inactive: 0.06 | inactive: 0.064 | inactive: 0.149 | inactive: -0.204 | inactive: 0.133
COX20 isoform 2 (UniProt Q5RI15) | inactive: -0.029 | inactive: -0.011 | inactive: -0.029 | inactive: -0.039 | inactive: -0.025 | inactive: 0.06 | inactive: -0.01 | inactive: 0.012 | inactive: -0.014 | inactive: -0.081
COTL1 (UniProt Q14019) | inactive: 0.011 | inactive: 0.024 | inactive: 0.016 | inactive: -0.09 | inactive: -0.056 | inactive: -0.006 | inactive: 0.015 | inactive: 0.031 | inactive: -0.009 | inactive: 0.055
COX18 (UniProt Q8N8Q8) | inactive: -0.024 | inactive: -0.066 | inactive: -0.026 | inactive: -0.002 | inactive: -0.04 | inactive: -0.04 | inactive: 0 | inactive: 0.052 | inactive: -0.051 | inactive: 0.066
COMMD9 (UniProt Q9P000) | inactive: -0.107 | inactive: 0.091 | inactive: 0.027 | inactive: -0.102 | inactive: 0.013 | inactive: -0.21 | inactive: 0.02 | inactive: 0.007 | inactive: -0.152 | inactive: 0.086
CREG1 (UniProt O75629) | inactive: 0.009 | inactive: 0.159 | inactive: -0.01 | inactive: -0.043 | inactive: 0.02 | inactive: 0.015 | inactive: -0.029 | inactive: 0.039 | inactive: -0.053 | inactive: 0.052
COQ6 (UniProt Q9Y2Z9) | inactive: 0.082 | inactive: -0.055 | inactive: -0.009 | inactive: 0.009 | inactive: -0.067 | inactive: -0.022 | inactive: 0.024 | inactive: 0.01 | inactive: 0.139 | inactive: -0.014
COQ5 (UniProt Q5HYK3) | inactive: 0.076 | inactive: -0.061 | inactive: -0.011 | inactive: 0.018 | inactive: 0.112 | inactive: 0.02 | inactive: 0.045 | inactive: 0.106 | inactive: 0.037 | inactive: 0.123
COX5B (UniProt P10606) | inactive: 0.012 | inactive: 0.212 | inactive: 0.094 | inactive: 0.019 | inactive: -0.103 | inactive: 0.004 | inactive: 0.011 | inactive: 0.015 | inactive: -0.038 | inactive: -0.04
COPRS (UniProt Q9NQ92) | inactive: -0.008 | inactive: 0.023 | inactive: -0.012 | inactive: 0.001 | inactive: -0.001 | inactive: -0.001 | inactive: 0.024 | inactive: 0.067 | inactive: -0.056 | inactive: -0.044
COPS8 (UniProt Q99627) | inactive: 0.006 | inactive: 0.023 | inactive: 0.045 | inactive: -0.017 | inactive: 0.042 | inactive: -0.078 | inactive: -0.028 | inactive: 0.117 | inactive: -0.01 | inactive: -0.014
COPS4 (UniProt Q9BT78) | active: 0.219 | inactive: -0.067 | inactive: 0.032 | inactive: -0.039 | inactive: -0.054 | inactive: -0.035 | inactive: -0.007 | inactive: 0.019 | inactive: 0.025 | inactive: -0.011
CRELD1 isoform 2 (UniProt Q96HD1) | inactive: -0.136 | inactive: -0.026 | inactive: -0.099 | inactive: 0.016 | inactive: 0.505 | inactive: -0.027 | inactive: 0.381 | inactive: 0.157 | inactive: -0.006 | inactive: 0.113
COX5A (UniProt P20674) | inactive: -0.1 | inactive: 0.015 | inactive: 0.054 | inactive: -0.012 | inactive: -0.13 | inactive: -0.092 | inactive: 0.067 | inactive: 0.084 | inactive: -0.108 | inactive: 0.108
CORO6 isoform 5 (UniProt Q6QEF8) | inactive: 0.021 | inactive: -0.315 | – | inactive: 0.059 | – | – | – | – | – | –
CRLS1 (UniProt Q9UJA2) | inactive: 0.044 | inactive: -0.125 | inactive: 0.005 | – | inactive: -0.071 | inactive: -0.229 | inactive: 0.021 | inactive: 0.075 | inactive: 0.046 | inactive: -0.029
COPB2 (UniProt P35606) | inactive: 0.003 | inactive: 0.024 | inactive: 0.024 | inactive: -0.023 | inactive: -0.039 | inactive: 0.085 | inactive: 0.023 | inactive: 0.003 | inactive: 0.008 | inactive: -0.012
CRIP2 isoform 2 (UniProt P52943) | inactive: -0.128 | inactive: -0.057 | inactive: -0.113 | inactive: 0.107 | – | inactive: -0.048 | inactive: -0.08 | – | inactive: -0.006 | –
CSNK1A1 (UniProt P48729) | inactive: 0.147 | inactive: 0.08 | inactive: 0.024 | inactive: 0.094 | – | inactive: -0.214 | inactive: -0.106 | inactive: -0.036 | inactive: 0.019 | inactive: 0.024
COX7A2 (UniProt P14406) | inactive: -0.114 | inactive: 0.008 | inactive: -0.011 | inactive: -0.028 | inactive: -0.228 | inactive: -0.049 | inactive: 0.034 | inactive: 0.061 | inactive: -0.083 | inactive: -0.014
CPD (UniProt O75976) | inactive: 0.022 | inactive: 0.082 | inactive: -0.045 | inactive: -0.005 | inactive: -0.038 | inactive: 0.046 | inactive: 0.007 | inactive: 0.015 | inactive: -0.01 | inactive: 0.034
CORO1C isoform 3 (UniProt Q9ULV4) | inactive: 0.055 | inactive: 0.017 | inactive: 0.038 | inactive: 0.011 | inactive: -0.066 | inactive: 0.07 | inactive: 0.09 | inactive: -0.003 | inactive: 0.012 | inactive: -0.097
CRPPA (UniProt A4D126) | inactive: -0.074 | inactive: -0.009 | inactive: 0.03 | inactive: -0.065 | inactive: -0.077 | inactive: 0.012 | inactive: 0.01 | inactive: 0.006 | inactive: 0.005 | inactive: 0.041
COX4I1 (UniProt P13073) | inactive: -0.017 | inactive: -0.024 | inactive: -0.004 | inactive: -0.007 | inactive: -0.024 | inactive: 0.008 | inactive: -0.008 | inactive: 0.073 | inactive: -0.012 | inactive: 0.006
CSNK1A1L (UniProt Q8N752) | inactive: -0.089 | inactive: 0.129 | inactive: -0.057 | inactive: 0.092 | inactive: 0.038 | inactive: -0.096 | inactive: -0.069 | inactive: -0.074 | inactive: 0.013 | inactive: -0.111
CRCP (UniProt O75575) | inactive: 0.031 | inactive: 0.036 | inactive: 0.054 | – | inactive: -0.189 | inactive: -0.039 | inactive: 0 | inactive: 0.068 | inactive: 0.038 | inactive: 0.009

Exported as tab-separated lines: part of the list above.
Target	log2 fold change [1]	log2 fold change (filanesib)	log2 fold change (zotarolimus)	log2 fold change (idasanutlin)	log2 fold change (alisertib)	log2 fold change [2]	log2 fold change (gefitinib)	log2 fold change [3]	log2 fold change (lapatinib)	log2 fold change (pictilisib)
COQ6 (UniProt Q9Y2Z9)	inactive: 0.082	inactive: -0.055	inactive: -0.009	inactive: 0.009	inactive: -0.067	inactive: -0.022	inactive: 0.024	inactive: 0.01	inactive: 0.139	inactive: -0.014
COQ5 (UniProt Q5HYK3)	inactive: 0.076	inactive: -0.061	inactive: -0.011	inactive: 0.018	inactive: 0.112	inactive: 0.02	inactive: 0.045	inactive: 0.106	inactive: 0.037	inactive: 0.123
